Reference: PubChem BioAssay (NCATS)
Inconclusive means that the source gave no clear call. Such entries were picked first, then a sample of the others. Potencies of inconclusive entries are doubtful fits and often do not repeat. Activity calls are given as the source filed them. Calls follow the shape of the dose curve; as a rule, active = well fitted cell-killing curve with a large enough effect; inconclusive = small, poorly fitted or top-dose-only effect, or effect the other way, or another doubt; inactive = no such curve, though single readings can be large or run the other way.

Test: Identifying Small Molecule Inhibitors of Pancreatic Cancer Stem Cells (A2780, Spheroid) (AID 1259357);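 also: compound exposure lasted 48 h before the ATP luminescence read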;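 as to viability (percent of control): 100% = DMSO treated cells and 0% = wells without cells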
Details: Potency: A2780 spheroid viability; viability (percent of control): at 46.1 µM (top of the series)
How it was run: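 Cytotoxicity read by CellTiter-Glo luminescence after 48 h compound exposure at 37C; percent activity scaled between DMSO-treated cells and cell-free wells. Spheroid formats used cells pre-formed 14 days in stem cell media on hydrogel.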
Potency is read from the fitted curve at half-maximal effect.

SMILES | Potency | viability (percent of control)
COc1cc2c(N3CCN(C(=O)Nc4ccc(OC(C)C)cc4)CC3)ncnc2cc1OCCCN1CCCCC1 | inconclusive: 3.72 µM [rising, partial curve, poor fit] | 
CC(C)(C)c1cc(NC(=O)Nc2ccc(-c3cn4c(n3)sc3cc(OCCN5CCOCC5)ccc34)cc2)no1 | inconclusive: 0.0105 µM [rising, full curve, poor fit] | 
CCc1ccc(CCOc2ccc(CC3SC(=O)NC3=O)cc2)nc1 (stereo not drawn) | inconclusive: 0.0526 µM [rising, full curve, poor fit] | 
COc1cc2ncnc(Nc3ccc(F)c(Cl)c3)c2cc1NC(=O)C=CCN1CCCCC1 | inconclusive: 33.2 µM [cytotoxic, single point] | 
CC(C)(O)CCc1ccc(OCc2cc(-c3cccc(OC(F)F)c3)c3ncccc3c2)cc1 |  | inconclusive: 108%
O=C(C=Cc1c(C(=O)O)[nH]c2cc(Cl)cc(Cl)c12)Nc1ccccc1 |  | inactive: 114%
COc1ccccc1-c1cccc(-c2c(O)c3cc(C#N)c(Cl)cc3[nH]c2=O)c1 |  | inconclusive: 71.2%
CC(C)c1ccccc1Cc1cc(C(=O)Nc2ccc(S(=O)(=O)c3ccccc3C(C)(C)C)cc2)c(O)c(O)c1O | inconclusive: 37.2 µM [cytotoxic, single point] | 
CN(C)CCCNC(=O)c1ccc(-c2cc(O)c3ncccc3c2)cc1 | inconclusive: 0.0372 µM [rising, full curve, poor fit] | 

Test: Identifying Small Molecule Inhibitors of Pancreatic Cancer Stem Cells (Panc1, Spheroid) (AID 1259359);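 also: compound exposure lasted 48 h before reading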
Details: Panc1 spheroid cancer stem cell viability; viability, % of control: at 46.1 µM (top of the series) unless noted
How it was run: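 Spheroids grown 14 days in stem cell media on nonadherent hydrogel before screening; cells attached 4 h, then compound exposure 48 h at 37C, 5% CO2. CellTiter-Glo luminescence normalized to DMSO (no inhibition) and no-cell wells (full inhibition).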

SMILES | Potency | viability, % of control
COc1cc2c(N3CCN(C(=O)Nc4ccc(OC(C)C)cc4)CC3)ncnc2cc1OCCCN1CCCCC1 | inconclusive: 8.33 µM [cytotoxic, full curve, poor fit] | 
CC(C)(C)c1cc(NC(=O)Nc2ccc(-c3cn4c(n3)sc3cc(OCCN5CCOCC5)ccc34)cc2)no1 | inconclusive: 2.64 µM [cytotoxic, full curve, poor fit] | 
CCc1ccc(CCOc2ccc(CC3SC(=O)NC3=O)cc2)nc1 (stereo not drawn) | inconclusive: 37.2 µM [rising, single point] | 
COc1cc2ncnc(Nc3ccc(F)c(Cl)c3)c2cc1NC(=O)C=CCN1CCCCC1 | active: 23.5 µM | 
CC(C)(O)CCc1ccc(OCc2cc(-c3cccc(OC(F)F)c3)c3ncccc3c2)cc1 | inconclusive: 37.2 µM [cytotoxic, partial curve, poor fit] | 
O=C(C=Cc1c(C(=O)O)[nH]c2cc(Cl)cc(Cl)c12)Nc1ccccc1 |  | inconclusive: 101%
COc1ccccc1-c1cccc(-c2c(O)c3cc(C#N)c(Cl)cc3[nH]c2=O)c1 | inconclusive: 0.0093 µM [cytotoxic, full curve, poor fit] | 
CC(C)c1ccccc1Cc1cc(C(=O)Nc2ccc(S(=O)(=O)c3ccccc3C(C)(C)C)cc2)c(O)c(O)c1O | inconclusive: 20.9 µM [cytotoxic, partial curve, poor fit] | 
CN(C)CCCNC(=O)c1ccc(-c2cc(O)c3ncccc3c2)cc1 | inconclusive: 23.5 µM [cytotoxic, partial curve, poor fit] | 

Copied from the results shown (2 entries):
SMILES | Potency | viability, % of control
COc1cc2c(N3CCN(C(=O)Nc4ccc(OC(C)C)cc4)CC3)ncnc2cc1OCCCN1CCCCC1 | inconclusive: 8.33 µM [cytotoxic, full curve, poor fit] | 
CC(C)(C)c1cc(NC(=O)Nc2ccc(-c3cn4c(n3)sc3cc(OCCN5CCOCC5)ccc34)cc2)no1 | inconclusive: 2.64 µM [cytotoxic, full curve, poor fit] | 
